Test results from PubChem BioAssay AID493014 (National Center for Advancing Translational Sciences (NCATS), 2011).
This is one part of the list. The main result of the screen is listed elsewhere. These columns were measured beside it and carry no call. Compounds called inactive in the main read-out are mostly missing here. Words in brackets tell the shape of the fitted curve; partial curves, single points and poor fits give uncertain potencies.

Experiment: qHTS Assay to Find Inhibitors of Chronic Active B-Cell Receptor Signaling
Conditions: ABC-DLBCL IkBa-CBG/CBR reporter, luminescence ratio (green luciferase fused to IkBa over red control in TMD8 lymphoma cells), 4 h
How it was run: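 Doxycycline induced both beetle luciferases in TMD8 lymphoma cells; IKK-driven degradation limits the IkappaBalpha-fused green signal, while red luminescence normalises for cell number and nonspecific effects. Compounds tested up to 46 uM, 4 hrs.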

[1] = measured here: CBR red luminescence, cell number
[2] = measured here: IkBa-CBG green luminescence

SMILES | AC50 [1] | AC50 [2]
COc1ccc(CCNC(=O)CS(=O)(=O)Cc2nc(-c3ccccc3Cl)oc2C)cc1OC | 0.794 µM [rising, full curve, poor fit] | 
COc1ccc(C2/C(=C(/O)c3ccccc3)C(=O)C(=O)N2CC(C)O)c(OC)c1 (centres undefined) | 17.8 µM [rising, single point] | 
COc1ccc(N(CC(=O)N/N=C(\C)c2ccc(OC)c(OC)c2)S(=O)(=O)c2ccccc2)cc1 | 28.2 µM [rising, partial curve, poor fit] | 
COC(=O)c1cn(-c2ccccc2)c(C)c1C(=O)OC | 9.2 µM [rising, partial curve, poor fit] | 
CCC(C)N1CCC2(CC1)N=c1c(c3c4c5c(C)c(O)c3c(O)c1=NC(=O)C(C)=CC=C[C@H](C)[C@H](O)[C@@H](C)[C@@H](O)[C@@H](C)[C@H](OC(C)=O)[C@H](C)[C@@H](OC)C=CO[C@@](C)(O5)C4=O)N2 (some centres undefined) | 6.51 µM [rising, partial curve, poor fit] | 
CC1=C(C(=O)OCc2ccccc2)C(c2ccc([N+](=O)[O-])cc2)NC(=O)N1C (centres undefined) | 35.5 µM [falling, single point] | 
COc1ccc(N2C(=O)C(CC(=O)Nc3ccc(F)cc3)N(CCc3ccc(OC)c(OC)c3)C2=O)cc1 (centres undefined) | 3.55 µM [rising, partial curve, poor fit] | 
CCc1noc(C)c1C(=O)Nc1nc2c(C)cccc2s1 | 2.91 µM [falling, partial curve] | 20.6 µM [rising, partial curve, poor fit]
Cn1c2ccccc2c2c(C(=O)NCC3CCCO3)cn(C3CCCC3)c(=O)c21 (centres undefined) | 0.651 µM [falling, full curve, poor fit] | 
Cc1ccc(NS(=O)(=O)c2ccc(N3C(=O)CCC3=O)cc2)cc1 | 2.06 µM [rising, partial curve, poor fit] | 
COc1ccc(N(CC(=O)NCc2ccccc2)C(=O)CCC(=O)Nc2cc(C)ccn2)c(OC)c1 | 35.5 µM [falling, single point] | 
CCn1cc(Cl)c(C(=O)N2N=C3/C(=C/c4cccs4)CCCC3C2c2cccs2)n1 (centres undefined) | 7.31 µM [falling, partial curve] | 
CN(c1ccccc1)S(=O)(=O)c1cccc(NC(=O)COc2ccccc2)c1 | 29.1 µM [falling, single point] | 
CCOC(=O)C1=C(N)n2c(s/c(=C\c3ccco3)c2=O)=C(C(=O)OCC)C1c1ccco1 (centres undefined) | 12.6 µM [rising, single point] | 
CCCCc1ccc(N=N/C(C(=O)Nc2ccc(NC(C)=O)cc2OC)=C(/C)O)cc1 | 6.31 µM [falling, single point] | 
COc1ccc(/C=C(\C#N)C(=O)c2c(C)[nH]c3ccccc23)cc1OC | 20.6 µM [falling, single point] | 
COc1ccc(NC(=O)CCCN2C(=O)CN(C)C2=O)c(OC)c1 | 29.1 µM [rising, partial curve, poor fit] | 
CCOC(=O)/C=C/C(=O)Nc1ccc(S(=O)(=O)N2CCc3ccccc32)cc1 | 10 µM [falling, single point] | 
O=C(/C=C/c1ccc(OC(F)F)cc1)OCC(=O)N1CCN(C(=O)c2ccco2)CC1 | 29.1 µM [rising, single point] | 

SMILES | AC50 [1] | AC50 [2]
CCC1=Nc2cc(C(=O)NCCCOC(C)C)ccc2Sc2ccc(C)cc21 | 5.62 µM [rising, full curve] | 2.82 µM [falling, full curve]
Cc1noc(C)c1CSCC(=O)Nc1nc2ccccc2s1 | 22.4 µM [falling, single point] | 
COc1ccc(-c2cnnn2-c2ccc(NC(=O)c3ccc(S(=O)(=O)N4CCCCC4)cc3)cc2)cc1OC |  | 2.59 µM [falling, full curve]
Cc1cnc(NC(=O)Cc2ccccc2Cl)s1 | 2.82 µM [falling, partial curve, poor fit] | 
COc1cccc(C(=O)Nc2nnc(-c3ccccc3)s2)c1OC | 2.82 µM [falling, partial curve, poor fit] | 
CN1C2C=C(N(CCc3c[nH]c4ccccc34)C(=O)c3ccc(Cl)cc3)CC1CC2 (centres undefined) | 25.1 µM [falling, single point] | 
CCOC(=O)C/C(C)=N/NC(=O)Nc1ccccc1 | 2.59 µM [rising, single point] | 
COc1ccc(C)cc1NC(=O)C(OC(=O)c1cnc(C)cn1)c1ccccc1 (centres undefined) | 13 µM [rising, partial curve, poor fit] | 
Cc1sc(NC(=O)c2ccco2)c(CN2CCN(c3ccccn3)CC2)c1C | 14.1 µM [falling, single point] | 
CCN(CCCNC(=O)CCCN1C(=O)COc2ccc(C)cc21)c1cccc(C)c1 | 15.8 µM [falling, single point] | 
CC(=O)Nc1ccc(NC(=O)C(C)OC(=O)CN(C)S(=O)(=O)c2ccc(Cl)cc2)cc1 (centres undefined) | 4.11 µM [rising, single point] | 
CCOc1cc(/C=N/O)ccc1OCc1ccc(F)cc1 | 1.84 µM [rising, full curve] | 
COc1ccccc1N(CC(=O)Nc1cc(C)on1)S(=O)(=O)c1ccc(Cl)cc1 | 0.326 µM [falling, full curve, poor fit] | 
COC(=O)c1c(C(=O)OC)c2n(c1C)CCS2 | 25.1 µM [falling, single point] | 
CC(=O)O/N=C(\N)c1cnn2c(C(F)(F)F)cc(C(F)(F)F)nc12 | 25.1 µM [rising, single point] | 
COc1cc(CN2CCC(C(=O)NC3CCCC3)CC2)ccc1O | 20.6 µM [rising, partial curve, poor fit] | 
Cc1ccc(S(=O)(=O)N(Cc2ccc(C(F)(F)F)cc2)C(=O)N2CCN(C)CC2)cc1 | 3.66 µM [rising, partial curve, poor fit] | 
O=C(O)COn1c(-c2ccccc2)nc2ccc(Cl)cc21 | 8.91 µM [falling, partial curve] | 

Arranged by count of non-hydrogen atoms (largest number first): 3 of the compounds above.
SMILES | AC50 [1] | AC50 [2]
COc1ccc(C)cc1NC(=O)C(OC(=O)c1cnc(C)cn1)c1ccccc1 (centres undefined) | 13 µM [rising, partial curve, poor fit] | 
CCOc1cc(/C=N/O)ccc1OCc1ccc(F)cc1 | 1.84 µM [rising, full curve] | 
Cc1cnc(NC(=O)Cc2ccccc2Cl)s1 | 2.82 µM [falling, partial curve, poor fit] | 
